The text below walks through data of patent publication US11077196B2, “Abuse-deterrent pharmaceutical composition” (priority 2016, dated 2021).

One test deals with laccase. Kind of test: Thin layer chromatography of enzymatic conversion. The class given is biochemical. As to conditions: samples at 2, 10, 30, 60, 120 minutes of enzymatic reaction.
Test [1] concerns laccase from Myceliophthora thermophila. As to conditions: 2 mg/ml morphine in distilled water, MtL 78.3 U/ml, after 30 minutes.
For test [2], the system named is laccase from Myceliophthora thermophila (MtL). Kind of test: Oxygen measurement of laccase catalysed oxidation of opioids (MtL). As to conditions: MtL 10 U/ml, substrate 2 mg/ml, distilled water, room temperature, optical oxygen sensor. It is filed as biochemical.
In test [3] the test system is laccase from Trametes villosa (TvL). Kind of test: Oxygen measurement of laccase catalysed oxidation of opioids (TvL). As to conditions: TvL 10 U/ml, substrate 2 mg/ml, distilled water, room temperature, optical oxygen sensor. The class given is biochemical.

Regarding `CN1CC[C@]23c4c5ccc(O)c4O[C@H]2[C@@H](O)C=C[C@H]3[C@H]1C5` [morphine, 4,5[alpha]-epoxy-17-methyl-7-morphinen-3,6[alpha]-diol], the “time after which the reference dot disappears on TLC (all converted)” value with laccase turned out to be 30 min. Further, the “morphine converted (GC-MS)” value in test [1] is “approx. 60%”. Also, the “oxygen concentration in solution (laccase oxidation of the opioid)” value in test [2] and in test [3] was “clear decrease in the oxygen concentration” throughout.
